The assay has as its target Metabotropic glutamate receptor 5 (Homo sapiens, UniProt P41594). Description: Inhibitory concentration towards human glutamate receptor 5 in calcium flux assay. In kind it is functional. Summed up: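 Ltk cells stably expressing human recombinant mGlu5; glutamate as agonist. Cytosolic Ca2+ changes read by fura-2 fluorescence in an automated format. IC50 given as geometric mean with limits and replicate number.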

The chains behind the UniProt entries cited, without tags or fusion partners.
UniProt P41594, whole entry: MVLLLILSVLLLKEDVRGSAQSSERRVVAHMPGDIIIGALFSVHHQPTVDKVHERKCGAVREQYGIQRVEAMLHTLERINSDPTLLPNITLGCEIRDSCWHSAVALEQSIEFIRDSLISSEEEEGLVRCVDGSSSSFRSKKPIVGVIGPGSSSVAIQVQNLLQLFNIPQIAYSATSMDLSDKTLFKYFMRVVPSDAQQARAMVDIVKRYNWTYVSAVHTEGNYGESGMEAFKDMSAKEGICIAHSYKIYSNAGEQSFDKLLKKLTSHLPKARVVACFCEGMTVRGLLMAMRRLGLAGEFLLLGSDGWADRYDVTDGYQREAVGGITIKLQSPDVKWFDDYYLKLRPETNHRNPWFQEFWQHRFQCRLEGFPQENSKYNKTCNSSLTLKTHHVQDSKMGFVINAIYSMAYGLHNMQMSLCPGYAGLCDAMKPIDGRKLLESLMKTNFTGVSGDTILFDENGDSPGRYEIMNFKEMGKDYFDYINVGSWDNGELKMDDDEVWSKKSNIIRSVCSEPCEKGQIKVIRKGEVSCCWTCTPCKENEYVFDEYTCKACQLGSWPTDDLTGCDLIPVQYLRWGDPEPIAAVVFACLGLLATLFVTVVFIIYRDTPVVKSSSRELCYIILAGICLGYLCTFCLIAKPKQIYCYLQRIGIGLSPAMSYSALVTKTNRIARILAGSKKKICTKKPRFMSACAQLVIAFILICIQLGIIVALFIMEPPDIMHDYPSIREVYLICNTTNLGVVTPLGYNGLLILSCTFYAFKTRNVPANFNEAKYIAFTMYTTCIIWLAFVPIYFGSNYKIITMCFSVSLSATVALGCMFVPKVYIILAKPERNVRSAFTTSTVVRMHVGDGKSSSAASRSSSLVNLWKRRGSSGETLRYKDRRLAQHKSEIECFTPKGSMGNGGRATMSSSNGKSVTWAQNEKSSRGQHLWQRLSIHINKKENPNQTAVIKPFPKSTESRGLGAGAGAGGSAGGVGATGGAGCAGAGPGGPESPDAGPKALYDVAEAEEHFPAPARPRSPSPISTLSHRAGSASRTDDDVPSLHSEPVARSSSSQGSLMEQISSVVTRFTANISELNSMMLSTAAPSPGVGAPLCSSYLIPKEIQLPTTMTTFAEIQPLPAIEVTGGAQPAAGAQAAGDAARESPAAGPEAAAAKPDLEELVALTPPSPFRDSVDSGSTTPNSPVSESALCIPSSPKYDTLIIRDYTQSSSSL

As for `N#Cc1cccc(-c2nc(-c3ccccn3)no2)c1`, the IC50 is 100 nM.
